PubChem BioAssay AID602196 | INSERM | 2012
Aim: 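Knock-downs that protect lung cancer cells from cisplatin or sensitise them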. Cells: human A549 lung cancer cells. Reagent: siRNA pair against human genes. Timing: 48 h transfection before cisplatin; time from cisplatin to read-out not stated. Conditions: cisplatin at a dose killing half of control-siRNA cells; exact dose and duration not given. Measurement: 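Cisplatin cell death as a shift from the 50% death seen with control siRNA; siRNAs toxic or growth-blocking alone scored 0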. Reading the numbers: two-siRNA summed score (-2 to +2): higher = both siRNAs protect from cisplatin killing; -2 means both sensitise; mean protection from cisplatin (shift in death) and protection from cisplatin (shift in death), siRNA C and protection from cisplatin (shift in death), siRNA D: higher = protection from cisplatin killing. Rule for the call: 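siRNAs harmful alone (LDH or WST-1) get 0; others get +1 for less and -1 for more cisplatin killing; genes are active when the two siRNAs give the same sign, summing to ±2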. Meaning of the calls: active = both siRNAs shift cisplatin killing the same way; inactive = no consistent shift, or siRNA harmful alone.
The deposit covers about 23,000 reagents; below is a random part of them. In the full data, 455 (2%) got an active call. 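Active includes both protection and sensitisation; some change values fall well beyond the stated -50 to +50 range.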 Reagents against one gene are numbered here. The record does not give: the amount of reagent.

Target gene | reagent no. | two-siRNA summed score (-2 to +2) | mean protection from cisplatin (shift in death) (%) | protection from cisplatin (shift in death), siRNA C (%) | protection from cisplatin (shift in death), siRNA D (%) | Outcome
PRB3 | 1 | 0 | 4.2 | -9.5 | 17.9 | inactive
TACR3 | 1 | -1 | -4.2 | 8.5 | -16.9 | inactive
KRTAP1-5 | 1 | 0 | 3 | 7.1 | -1.2 | inactive
PDCL | 1 | 0 | -6.6 | -12.8 | -0.3 | inactive
LOC442512 | 1 | 0 | 15.1 | 20.9 | 9.3 | inactive
EIF5A | 1 | 1 | 8.9 | 7.1 | 10.7 | inactive
TNPO2 | 1 | 0 | 0 | -0.6 | 0.6 | inactive
UROS | 1 | -1 | -8.5 | 8.7 | -25.8 | inactive
BET1 | 1 | -1 | -6.5 | 3.9 | -16.9 | inactive
B4GALT3 | 1 | 0 | 2 | 6.4 | -2.4 | inactive
XK | 1 | 1 | 7.2 | 3.7 | 10.7 | inactive
ZNF271P | 1 | 1 | 13.3 | -0.9 | 27.5 | inactive
LRP5L | 1 | 0 | 5.1 | 10.8 | -0.5 | inactive
HDX | 1 | 0 | -9.1 | -8.1 | -10 | inactive
CIMIP1 | 1 | 1 | 0.7 | -7.5 | 8.8 | inactive
PNMA1 | 1 | 1 | 5.9 | 22.5 | -10.7 | inactive
LOC442092 | 1 | 0 | 4.5 | -7.9 | 16.9 | inactive
F2R | 1 | 1 | 10 | 7.5 | 12.4 | inactive
PLA2G7 | 1 | -1 | -8.7 | -17.7 | 0.4 | inactive
IRX4 | 1 | 0 | 11.8 | 19.7 | 3.9 | inactive
CHRAC1 | 1 | -1 | -9.1 | 1.8 | -19.9 | inactive
RPS19 | 1 | 0 | 15.1 | 11.8 | 18.4 | inactive
KCNIP3 | 1 | 0 | 6.4 | 5.3 | 7.6 | inactive
AOC1 | 1 | 0 | 0 | 15.7 | -15.7 | inactive
RAB11B | 1 | -1 | 2.2 | 23.3 | -18.9 | inactive
RASSF3 | 1 | 0 | 8 | -1.7 | 17.7 | inactive
MRPS21 | 1 | 0 | -6.5 | -4.6 | -8.4 | inactive
LOC440705 | 1 | 0 | 3.6 | -2.7 | 10 | inactive
TRIM29 | 1 | -1 | -6.8 | 4.3 | -17.9 | inactive
LOC387873 | 1 | 0 | 2.5 | -12.4 | 17.4 | inactive
CDK2 | 1 | 0 | -3 | -11 | 5 | inactive
TNNT3 | 1 | 0 | -4.7 | 2.5 | -11.9 | inactive
C1orf122 | 1 | 0 | 3 | 5.8 | 0.3 | inactive
KCNG2 | 1 | -1 | -8.1 | -20.7 | 4.4 | inactive
DNAJB7 | 1 | -1 | -6.2 | -9.8 | -2.7 | inactive
AP2B1 | 1 | -1 | -6 | -9.9 | -2.1 | inactive
FCN2 | 1 | 0 | -6.5 | -4 | -9.1 | inactive
CCDC142 | 1 | 0 | -12.1 | -9.2 | -15 | inactive
MEFV | 1 | 0 | -1.8 | -2.5 | -1.2 | inactive
RPL36A | 1 | 0 | -1.6 | -0.4 | -2.8 | inactive
PIP5KL1 | 1 | 1 | 24.1 | 13.6 | 34.6 | inactive
LOC81787 (retired record) | 1 | 0 | -1.7 | -8.5 | 5 | inactive
CLCN6 | 1 | 0 | 1.9 | 6 | -2.2 | inactive
KIAA0408 | 1 | 1 | 14 | -7.9 | 36 | inactive
PPM1H | 1 | 1 | 13.1 | 20.2 | 6.1 | inactive
NPVF | 1 | -1 | -16.9 | -6.8 | -27.1 | inactive
MTMR9 | 1 | -1 | -7 | 4.6 | -18.5 | inactive
MAGEA4 | 1 | 0 | 7.1 | 30.1 | -15.8 | inactive
SCNN1D | 1 | -1 | -2.1 | -23.6 | 19.4 | inactive
LOC440561 | 1 | 0 | 11.4 | 15.6 | 7.2 | inactive
PTK7 | 1 | 0 | 6.1 | -2.9 | 15 | inactive
CD1E | 1 | 0 | -8.7 | -9 | -8.3 | inactive
ANGPTL3 | 1 | -2 | -27.3 | -27.1 | -27.6 | active
G6PC1 | 1 | 0 | 8 | 0.6 | 15.4 | inactive
LOC402694 | 1 | 0 | 2.1 | 12.4 | -8.3 | inactive
MAGEA1 | 1 | 0 | 13.3 | 10.6 | 16 | inactive
COPRS | 1 | 0 | 13.3 | 6.9 | 19.7 | inactive
HOXC8 | 1 | 0 | -2.4 | -2.8 | -1.9 | inactive
LOC441782 | 1 | 0 | 7.4 | 3.2 | 11.7 | inactive
TRIM25 | 1 | 1 | 2.8 | -16.3 | 22 | inactive
PROSER3 | 1 | 0 | -0.6 | -4.1 | 2.9 | inactive
RAB6A | 1 | 0 | 8.4 | 3.4 | 13.4 | inactive
MMP21 | 1 | 0 | 9.4 | 14.5 | 4.3 | inactive
CIAO2A | 1 | 0 | 5.8 | 4.1 | 7.4 | inactive
CIAO2A | 2 | 0 | 6.2 | 5.5 | 7 | inactive
CHTF18 | 1 | 0 | 9.7 | 19 | 0.4 | inactive
GPR88 | 1 | 0 | 3.6 | 0.2 | 7 | inactive
ZNF410 | 1 | 0 | 6.3 | 15.5 | -3 | inactive
MARK4 | 1 | 1 | 32.5 | 30.2 | 34.8 | inactive
HARS2 | 1 | 0 | 6.1 | 9.3 | 2.9 | inactive
MFNG | 1 | 0 | -3.4 | 9.1 | -15.8 | inactive
BAGE2 | 1 | 0 | -2.8 | 4.7 | -10.3 | inactive
ADAMTSL5 | 1 | 0 | -2.9 | -2.7 | -3 | inactive

Part of the list above, reformatted:
Target gene	reagent no.	two-siRNA summed score (-2 to +2)	mean protection from cisplatin (shift in death) (%)	protection from cisplatin (shift in death), siRNA C (%)	protection from cisplatin (shift in death), siRNA D (%)	Outcome
SCNN1D	1	-1	-2.1	-23.6	19.4	inactive
LOC440561	1	0	11.4	15.6	7.2	inactive
PTK7	1	0	6.1	-2.9	15	inactive
CD1E	1	0	-8.7	-9	-8.3	inactive
ANGPTL3	1	-2	-27.3	-27.1	-27.6	active
G6PC1	1	0	8	0.6	15.4	inactive
